Source: US20220325000A1
Results are given in words; binding and its absence hold for the method and conditions named. Some entries that bind do so weakly or less than the wild type.

Sequences of proteins named here, by UniProt entry; tags and fusion partners are left off. Residues count along the entry.
UniProt P10646, residues 29-189: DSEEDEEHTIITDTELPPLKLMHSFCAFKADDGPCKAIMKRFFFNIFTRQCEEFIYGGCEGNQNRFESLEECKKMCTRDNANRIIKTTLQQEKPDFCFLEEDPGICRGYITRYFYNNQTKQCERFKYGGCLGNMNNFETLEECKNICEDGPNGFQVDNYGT

Target: hTFPI161-Chis (human) (UniProt P10646)
Experiment: ELISA, hTFPI161 coated, anti-human IgG4-HRP

- binding: binds
B1: Hu7G62-v2 (antibody, human IgG4 S228P, kappa, V domains shown)
VH: QVQLVQSGAEVKKPGASVKVSCKASGYSFTSYGISWVKQAPGQGLEWIGEIYPRSTNTYYNEKFMGKATLTADKSSSTAYMELSSLRSEDTAVYYCARESFYGDYGAMDFWGQGTLVTVSS
VL: DIVMTQSPLSLPVTPGEPASISCKSSQSLLESDGKTYLNWYLQKPGQSPQLLIYLVSKLDSGVPDRFSGSGSGTDFTLKISRVEAEDVGVYYCSQGTHFPRTFGQGTKVEIKR
